Measured values published in patent US11065203B2, “Liposomal compositions and uses of same” (Technion Research & Development Foundation Limited, priority 2009, dated 2021).

B1: P13804 (protein, UniProt P13804 1-333, looked up)
chain: MFRAAAPGQLRRAASLLRFQSTLVIAEHANDSLAPITLNTITAATRLGGEVSCLVAGTKCDKVAQDLCKVAGIAKVLVAQHDVYKGLLPEELTPLILATQKQFNYTHICAGASAFGKNLLPRVAAKLEVAPISDIIAIKSPDTFVRTIYAGNALCTVKCDEKVKVFSVRGTSFDAAATSGGSASSEKASSTSPVEISEWLDQKLTKSDRPELTGAKVVVSGGRGLKSGENFKLLYDLADQLHAAVGASRAAVDAGFVPNDMQVGQTGKIVAPELYIAVGISGAIQHLAGMKDSKTIVAINKDPEAPIFQVADYGIVADLFKVVPEMTEILKKK
modifications: full-length
B2: Q9UIJ7 (protein, UniProt Q9UIJ7 1-227, looked up)
chain: MGASARLLRAVIMGAPGSGKGTVSSRITTHFELKHLSSGDLLRDNMLRGTEIGVLAKAFIDQGKLIPDDVMTRLALHELKNLTQYSWLLDGFPRTLPQAEALDRAYQIDTVINLNVPFEVIKQRLTARWIHPASGRVYNIEFNPPKTVGIDDLTGEPLIQREDDKPETVIKRLKAYEDQTKPVLEYYQKKGVLETFSGTETNKIWPYVYAFLQTKVPQRSQKASVTP
modifications: full-length
B3: Q969H8 (protein, UniProt Q969H8 1-173, looked up)
chain: MAAPSGGWNGVGASLWAALLLGAVALRPAEAVSEPTTVAFDVRPGGVVHSFSHNVGPGDKYTCMFTYASQGGTNEQWQMSLGTSEDHQHFTCTIWRPQGKSYLYFTQFKAEVRGAEIEYAMAYSKAAFERESDVPLKTEEFEVTKTAVAHRPGAFKAELSKLVIVAKASRTEL
modifications: full-length
B4: Q14103 (protein, UniProt Q14103 1-355, looked up)
chain: MSEEQFGGDGAAAAATAAVGGSAGEQEGAMVAATQGAAAAAGSGAGTGGGTASGGTEGGSAESEGAKIDASKNEEDEGHSNSSPRHSEAATAQREEWKMFIGGLSWDTTKKDLKDYFSKFGEVVDCTLKLDPITGRSRGFGFVLFKESESVDKVMDQKEHKLNGKVIDPKRAKAMKTKEPVKKIFVGGLSPDTPEEKIREYFGGFGEVESIELPMDNKTNKRRGFCFITFKEEEPVKKIMEKKYHNVGLSKCEIKVAMSKEQYQQQQQWGSRGGFAGRARGRGGGPSQNWNQGYSNYWNQGYGNYGYNSQGYGGYGGYDYTGYNNYYGYGDYSNQQSGYGKVSRRGGHQNSYKPY
modifications: full-length
B5: P07954 (protein, UniProt P07954 1-510, looked up)
chain: MYRALRLLARSRPLVRAPAAALASAPGLGGAAVPSFWPPNAARMASQNSFRIEYDTFGELKVPNDKYYGAQTVRSTMNFKIGGVTERMPTPVIKAFGILKRAAAEVNQDYGLDPKIANAIMKAADEVAEGKLNDHFPLVVWQTGSGTQTNMNVNEVISNRAIEMLGGELGSKIPVHPNDHVNKSQSSNDTFPTAMHIAAAIEVHEVLLPGLQKLHDALDAKSKEFAQIIKIGRTHTQDAVPLTLGQEFSGYVQQVKYAMTRIKAAMPRIYELAAGGTAVGTGLNTRIGFAEKVAAKVAALTGLPFVTAPNKFEALAAHDALVELSGAMNTTACSLMKIANDIRFLGSGPRSGLGELILPENEPGSSIMPGKVNPTQCEAMTMVAAQVMGNHVAVTVGGSNGHFELNVFKPMMIKNVLHSARLLGDASVSFTENCVVGIQANTERINKLMNESLMLVTALNPHIGYDKAAKIAKTAHKNGSTLKETAIELGYLTAEQFDEWVKPKDMLGPK
modifications: full-length
B6: Q14697 (protein, UniProt Q14697 1-944, looked up)
chain: MAAVAAVAARRRRSWASLVLAFLGVCLGITLAVDRSNFKTCEESSFCKRQRSIRPGLSPYRALLDSLQLGPDSLTVHLIHEVTKVLLVLELQGLQKNMTRFRIDELEPRRPRYRVPDVLVADPPIARLSVSGRDENSVELTMAEGPYKIILTARPFRLDLLEDRSLLLSVNARGLLEFEHQRAPRVSQGSKDPAEGDGAQPEETPRDGDKPEETQGKAEKDEPGAWEETFKTHSDSKPYGPMSVGLDFSLPGMEHVYGIPEHADNLRLKVTEGGEPYRLYNLDVFQYELYNPMALYGSVPVLLAHNPHRDLGIFWLNAAETWVDISSNTAGKTLFGKMMDYLQGSGETPQTDVRWMSETGIIDVFLLLGPSISDVFRQYASLTGTQALPPLFSLGYHQSRWNYRDEADVLEVDQGFDDHNLPCDVIWLDIEHADGKRYFTWDPSRFPQPRTMLERLASKRRKLVAIVDPHIKVDSGYRVHEELRNLGLYVKTRDGSDYEGWCWPGSAGYPDFTNPTMRAWWANMFSYDNYEGSAPNLFVWNDMNEPSVFNGPEVTMLKDAQHYGGWEHRDVHNIYGLYVHMATADGLRQRSGGMERPFVLARAFFAGSQRFGAVWTGDNTAEWDHLKISIPMCLSLGLVGLSFCGADVGGFFKNPEPELLVRWYQMGAYQPFFRAHAHLDTGRREPWLLPSQHNDIIRDALGQRYSLLPFWYTLLYQAHREGIPVMRPLWVQYPQDVTTFNIDDQYLLGDALLVHPVSDSGAHGVQVYLPGQGEVWYDIQSYQKHHGPQTLYLPVTLSSIPVFQRGGTIVPRWMRVRRSSECMKDDPITLFVALSPQGTAQGELFLDDGHTFNYQTRQEFLLRRFSFSGNTLVSSSADPEGHFETPIWIERVVIIGAGKPAAVVLQTKGSPESRLSFQHDPETSVLVLRKPGINVASDWSIHLR
modifications: full-length
B7: O14983 (protein, UniProt O14983 1-1001, looked up)
chain: MEAAHAKTTEECLAYFGVSETTGLTPDQVKRNLEKYGLNELPAEEGKTLWELVIEQFEDLLVRILLLAACISFVLAWFEEGEETITAFVEPFVILLILIANAIVGVWQERNAENAIEALKEYEPEMGKVYRADRKSVQRIKARDIVPGDIVEVAVGDKVPADIRILAIKSTTLRVDQSILTGESVSVIKHTEPVPDPRAVNQDKKNMLFSGTNIAAGKALGIVATTGVGTEIGKIRDQMAATEQDKTPLQQKLDEFGEQLSKVISLICVAVWLINIGHFNDPVHGGSWFRGAIYYFKIAVALAVAAIPEGLPAVITTCLALGTRRMAKKNAIVRSLPSVETLGCTSVICSDKTGTLTTNQMSVCKMFIIDKVDGDICLLNEFSITGSTYAPEGEVLKNDKPVRPGQYDGLVELATICALCNDSSLDFNEAKGVYEKVGEATETALTTLVEKMNVFNTDVRSLSKVERANACNSVIRQLMKKEFTLEFSRDRKSMSVYCSPAKSSRAAVGNKMFVKGAPEGVIDRCNYVRVGTTRVPLTGPVKEKIMAVIKEWGTGRDTLRCLALATRDTPPKREEMVLDDSARFLEYETDLTFVGVVGMLDPPRKEVTGSIQLCRDAGIRVIMITGDNKGTAIAICRRIGIFGENEEVADRAYTGREFDDLPLAEQREACRRACCFARVEPSHKSKIVEYLQSYDEITAMTGDGVNDAPALKKAEIGIAMGSGTAVAKTASEMVLADDNFSTIVAAVEEGRAIYNNMKQFIRYLISSNVGEVVCIFLTAALGLPEALIPVQLLWVNLVTDGLPATALGFNPPDLDIMDRPPRSPKEPLISGWLFFRYMAIGGYVGAATVGAAAWWFLYAEDGPHVNYSQLTHFMQCTEDNTHFEGIDCEVFEAPEPMTMALSVLVTIEMCNALNSLSENQSLLRMPPWVNIWLLGSICLSMSLHFLILYVDPLPMIFKLRALDLTQWLMVLKISLPVIGLDEILKFVARNYLEDPEDERRK
modifications: full-length
B8: P20020 (protein, UniProt P20020 1-1220, looked up)
chain: MGDMANNSVAYSGVKNSLKEANHDGDFGITLAELRALMELRSTDALRKIQESYGDVYGICTKLKTSPNEGLSGNPADLERREAVFGKNFIPPKKPKTFLQLVWEALQDVTLIILEIAAIVSLGLSFYQPPEGDNALCGEVSVGEEEGEGETGWIEGAAILLSVVCVVLVTAFNDWSKEKQFRGLQSRIEQEQKFTVIRGGQVIQIPVADITVGDIAQVKYGDLLPADGILIQGNDLKIDESSLTGESDHVKKSLDKDPLLLSGTHVMEGSGRMVVTAVGVNSQTGIIFTLLGAGGEEEEKKDEKKKEKKNKKQDGAIENRNKAKAQDGAAMEMQPLKSEEGGDGDEKDKKKANLPKKEKSVLQGKLTKLAVQIGKAGLLMSAITVIILVLYFVIDTFWVQKRPWLAECTPIYIQYFVKFFIIGVTVLVVAVPEGLPLAVTISLAYSVKKMMKDNNLVRHLDACETMGNATAICSDKTGTLTMNRMTVVQAYINEKHYKKVPEPEAIPPNILSYLVTGISVNCAYTSKILPPEKEGGLPRHVGNKTECALLGLLLDLKRDYQDVRNEIPEEALYKVYTFNSVRKSMSTVLKNSDGSYRIFSKGASEIILKKCFKILSANGEAKVFRPRDRDDIVKTVIEPMASEGLRTICLAFRDFPAGEPEPEWDNENDIVTGLTCIAVVGIEDPVRPEVPDAIKKCQRAGITVRMVTGDNINTARAIATKCGILHPGEDFLCLEGKDFNRRIRNEKGEIEQERIDKIWPKLRVLARSSPTDKHTLVKGIIDSTVSDQRQVVAVTGDGTNDGPALKKADVGFAMGIAGTDVAKEASDIILTDDNFTSIVKAVMWGRNVYDSISKFLQFQLTVNVVAVIVAFTGACITQDSPLKAVQMLWVNLIMDTLASLALATEPPTESLLLRKPYGRNKPLISRTMMKNILGHAFYQLVVVFTLLFAGEKFFDIDSGRNAPLHAPPSEHYTIVFNTFVLMQLFNEINARKIHGERNVFEGIFNNAIFCTIVLGTFVVQIIIVQFGGKPFSCSELSIEQWLWSIFLGMGTLLWGQLISTIPTSRLKFLKEAGHGTQKEEIPEEELAEDVEEIDHAERELRRGQILWFRGLNRIQTQIRVVNAFRSSLYEGLEKPESRSSIHNFMTHPEFRIEDSEPHIPLIDDTDAEDDAPTKRNSSPPPSPNKNNNAVDSGIHLTIEMNKSATSSSPGSPLHSLETSL
modifications: full-length
B9: Q9NYL4 (protein, UniProt Q9NYL4 1-201, looked up)
chain: MTLRPSLLPLHLLLLLLLSAAVCRAEAGLETESPVRTLQVETLVEPPEPCAEPAAFGDTLHIHYTGSLVDGRIIDTSLTRDPLVIELGQKQVIPGLEQSLLDMCVGEKRRAIIPSHLAYGKRGFPPSVPADAVVQYDVELIALIRANYWLKLVKGILPLVGMAMVPALLGLIGYHLYRKANRPKVSKKKLKEEKRNKSKKK
modifications: full-length
B10: P61916 (protein, UniProt P61916 1-151, looked up)
chain: MRFLAATFLLLALSTAAQAEPVQFKDCGSVDGVIKEVNVSPCPTQPCQLSKGQSYSVNVTFTSNIQSKSSKAVVHGILMGVPVPFPIPEPDGCKSGINCPIQKDKTYSYLNKLPVKSEYPSIKLVVEWQLQDDKNQSLFCWEIPVQIVSHL
modifications: full-length

Assay: Proteomics analysis (trypsin digest, LC-MS/MS) of hMSC ghosts and derived CDLs, conditioned or unconditioned by PC3 medium
Set-up: species or system human
Conditions: CDLs derived from conditioned hMSCs versus conditioned ghosts; LC-MS/MS peak area per protein

Point of comparison: B6, “Ratio of expression Cond. CDLs/Cond. Ghosts” value 3%. Against it:
- B1 — the same, 3%
- B2 — the same, 3%
- B3 — the same, 3%
- B4 — lower, 0%
- B5 — the same, 3%
- B7 — lower, 2%
- B8 — lower, 2%
- B9 — lower, 2%
- B10 — lower, 2%

Same assay, conditions: hMSC ghosts conditioned by PC3 medium versus unconditioned ghosts; LC-MS/MS peak area per protein

Point of comparison: B9, “Ratio of expression Cond Ghosts/Ghosts” value 100%. Against it:
- B1 — the same, 100%
- B2 — the same, 100%
- B3 — the same, 100%
- B4 — higher, 198%
- B5 — the same, 100%
- B6 — the same, 100%
- B7 — the same, 100%
- B8 — the same, 100%
- B10 — higher, 195%
